PubChem BioAssay AID493246 | Drosophila RNAi Screening Center – 2011

Screen: 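Genes fly cells need to grow and stay alive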 (primary screen)
Cells: Drosophila Kc and S2R+ cells
Knock-down reagent: long dsRNA against Drosophila genes
Measured: 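Raw, unnormalised count of remaining cells in each well; per-plate z-scores of cell number underlie the calls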
Reading the numbers: Kc cell number and S2R+ cell number: higher = more cells remaining
Hit rule: 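Active when the per-plate z-score of cell number is 3 or more in the direction of fewer cells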
The screen tested about 21,000 reagents; this is an unselected part of those that have a named target and a result. Of all reagents, 429 (2%) are marked active. 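Values are raw and not normalised between plates; calls rest on per-plate z-scores that were not deposited.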 Names joined by + are all predicted targets of the reagent. No sequences are given here. Not stated in the record: the amount of reagent, the time to read-out.

| gene | PubChem SID | Kc cell number, rep 1 | Kc cell number, rep 2 | S2R+ cell number, rep 1 | S2R+ cell number, rep 2 | Call |
| --- | --- | --- | --- | --- | --- | --- |
| Mal-A4 (GeneID 35827) | SID104187028 | 1.52e6 | 1.52e6 | 1.29e6 | 1.46e6 | inactive |
| CG31709 (GeneID 261620) | SID104180873 | 1.49e6 | 1.49e6 | 9.97e5 | 1.11e6 | inactive |
| CG12795 (GeneID 33561) | SID104180146 | 1.49e6 | 1.43e6 | 1.10e6 | 1.28e6 | inactive |
| Lip4 (GeneID 34450) | SID104182722 | 1.64e6 | 1.73e6 | 1.30e6 | 1.56e6 | inactive |
| CG3955 (GeneID 36438) | SID104186651 | 1.25e6 | 1.34e6 | 1.01e6 | 1.02e6 | inactive |
| Lsd-2 (GeneID 32437) | SID104199935 | 5.99e5 | – | 8.61e5 | – | inactive |
| CG9426 (GeneID 34719) | SID104183011 | 1.57e6 | 1.56e6 | 1.09e6 | 1.26e6 | inactive |
| CG10063 (GeneID 38764) | SID104189480 | 1.52e6 | 1.63e6 | 1.13e6 | 1.19e6 | inactive |
| kek4 (GeneID 34718) | SID104183012 | 1.39e6 | 1.38e6 | 1.12e6 | 1.23e6 | inactive |
| elm (GeneID 40695) | SID104192101 | 1.48e6 | 1.55e6 | 1.20e6 | 1.19e6 | inactive |
| H (GeneID 42445) | SID104196484 | 1.21e6 | 1.19e6 | 1.09e6 | 1.17e6 | inactive |
| mib1 (GeneID 39750) | SID104190342 | 1.25e6 | 1.43e6 | 1.37e6 | 1.49e6 | inactive |
| Su(Tpl) (GeneID 40171) | SID104190746 | 1.70e6 | 1.84e6 | 1.22e6 | 1.30e6 | inactive |
| CG12828 (GeneID 5740660) | SID104185969 | 1.45e6 | 1.50e6 | 1.22e6 | 1.28e6 | inactive |
| VhaM9.7-c (GeneID 38503) | SID104187996 | 1.39e6 | 1.40e6 | 1.23e6 | 1.24e6 | inactive |
| Ugt303A1 (GeneID 53503) | SID104195433 | 1.63e6 | 1.54e6 | 1.32e6 | 1.37e6 | inactive |
| Ac3 (GeneID 35419) | SID104183484 | 1.34e6 | 1.44e6 | 1.15e6 | 1.16e6 | inactive |
| CG12539 (GeneID 32412) | SID104199262 | 1.51e6 | 1.52e6 | 1.05e6 | 1.20e6 | inactive |
| CG13894 (GeneID 38086) | SID104188156 | 1.51e6 | 1.46e6 | 6.74e5 | 8.12e5 | inactive |
| CG3222 (GeneID 39114) | SID104190147 | 1.38e6 | 1.25e6 | 1.17e6 | 1.32e6 | inactive |
| MED8 (GeneID 37305) | SID104186218 | 2.03e6 | 1.97e6 | 1.38e6 | 1.68e6 | inactive |
| CG13405 (GeneID 38016) | SID104188102 | 1.22e6 | 1.27e6 | 9.77e5 | 1.24e6 | inactive |
| CG32055 (GeneID 39188) | SID104190458 | 1.33e6 | 1.44e6 | 1.24e6 | 1.16e6 | inactive |
| CG13308 (GeneID 39011) | SID104189771 | 1.31e6 | 1.21e6 | 1.21e6 | 1.23e6 | inactive |
| Cc2d2a (GeneID 36982) | SID104186542 | 1.53e6 | 1.57e6 | 1.15e6 | 1.26e6 | inactive |
| CG32266 (GeneID 317945) | SID104187854 | 1.41e6 | 1.37e6 | 1.02e6 | 1.15e6 | inactive |
| mtt (GeneID 35832) | SID104184898 | 1.51e6 | 1.60e6 | 7.61e5 | 9.16e5 | inactive |
| mtt (GeneID 35832) | SID104184899 | 1.56e6 | 1.71e6 | 9.21e5 | 1.10e6 | inactive |
| mtt (GeneID 35832) | SID104186545 | 1.58e6 | 1.69e6 | 1.28e6 | 1.43e6 | inactive |
| mtt (GeneID 35832) | SID104187027 | 1.68e6 | 1.78e6 | 1.20e6 | 1.38e6 | inactive |
| CG13168 (GeneID 36327) | SID104186087 | 1.49e6 | 1.52e6 | 1.24e6 | 1.32e6 | inactive |
| CG32700 (GeneID 31896) | SID104197649 | 1.57e6 | 1.49e6 | 1.04e6 | 1.12e6 | inactive |
| CG32700 (GeneID 31896) | SID104197650 | 1.51e6 | 1.48e6 | 1.06e6 | 1.10e6 | inactive |
| CG32695 (GeneID 31918) | SID104197767 | 1.86e6 | 1.92e6 | 1.12e6 | 1.30e6 | inactive |
| CG5504 (GeneID 48844) | SID104184493 | 1.34e6 | 1.48e6 | 1.02e6 | 1.02e6 | inactive |
| Rpt3 (GeneID 32047) | SID104200075 | 9.13e5 | 1.04e6 | 6.36e5 | 7.91e5 | active |
| Ugt49C1 (GeneID 37421) | SID104184044 | 1.48e6 | 1.54e6 | 1.36e6 | 3.03e5 | inactive |
| CG14712 (GeneID 41397) | SID104194727 | 1.38e6 | 1.43e6 | 6.81e5 | 7.86e5 | active |
| CG6567 + CG4565 | SID104195391 | 1.46e6 | 1.52e6 | 1.27e6 | 1.32e6 | inactive |
| CG34150 (GeneID 4379863) | SID104193481 | 1.16e6 | 1.48e6 | 1.12e6 | 1.14e6 | inactive |
| pzg (GeneID 40351) | SID104191640 | 1.28e6 | 1.35e6 | 1.43e6 | 1.48e6 | inactive |
| Spn42Db (GeneID 35599) | SID104184801 | 1.72e6 | 1.71e6 | 1.39e6 | 1.52e6 | inactive |
| sbb (GeneID 44027) | SID104185515 | 5.55e5 | – | 7.82e5 | – | inactive |
| sbb (GeneID 44027) | SID104187468 | 1.73e6 | 1.72e6 | 1.33e6 | 1.45e6 | inactive |
| Actn (GeneID 31166) | SID104197516 | 5.73e5 | – | 8.05e5 | – | inactive |
| Obp46a (GeneID 36088) | SID104186012 | 1.44e6 | 1.49e6 | 1.22e6 | 1.33e6 | inactive |
| CG2772 (GeneID 33559) | SID104180322 | 1.47e6 | 1.42e6 | 1.07e6 | 1.21e6 | inactive |
| Atg13 (GeneID 40998) | SID104196020 | 1.59e6 | 1.76e6 | 1.20e6 | 1.33e6 | inactive |
| Sap-r (GeneID 43662) | SID104196641 | 1.55e6 | 1.54e6 | 1.05e6 | 1.23e6 | inactive |
| Sac1 (GeneID 38137) | SID104188414 | 1.35e6 | 1.46e6 | 9.83e5 | 9.91e5 | inactive |
| CG11672 (GeneID 40977) | SID104194136 | 1.70e6 | 1.92e6 | 1.24e6 | 1.39e6 | inactive |
| dpr2 (GeneID 3346227) | SID104182162 | 1.47e6 | 1.59e6 | 1.26e6 | 1.38e6 | inactive |
| dpr2 (GeneID 3346227) | SID104182163 | 1.53e6 | 1.59e6 | 1.23e6 | 1.35e6 | inactive |
| CR31824 (GeneID 10178848) | SID104181309 | 1.55e6 | 1.53e6 | 9.26e5 | 1.17e6 | inactive |
| CG9263 (GeneID 34770) | SID104182968 | 1.53e6 | 1.60e6 | 1.26e6 | 1.37e6 | inactive |
| CG10474 (GeneID 37211) | SID104185785 | 1.52e6 | 1.54e6 | 1.15e6 | 1.26e6 | inactive |
| CG15399 (GeneID 33472) | SID104180205 | 1.87e6 | 1.87e6 | 1.13e6 | 1.18e6 | inactive |
| park + Targ3 | SID104191409 | 1.80e6 | 1.86e6 | 1.54e6 | 1.58e6 | inactive |
| CG5446 (GeneID 34655) | SID104182654 | 1.53e6 | 1.63e6 | 1.07e6 | 1.18e6 | inactive |

Records listed so far whose gene name begins with P or p (2):
| gene | PubChem SID | Kc cell number, rep 1 | Kc cell number, rep 2 | S2R+ cell number, rep 1 | S2R+ cell number, rep 2 | Call |
| --- | --- | --- | --- | --- | --- | --- |
| pzg (GeneID 40351) | SID104191640 | 1.28e6 | 1.35e6 | 1.43e6 | 1.48e6 | inactive |
| park + Targ3 | SID104191409 | 1.80e6 | 1.86e6 | 1.54e6 | 1.58e6 | inactive |
